Results reported in PubChem BioAssay AID248 (DTP/NCI, 2004).
The list shows only some results of the screen, not a fair sample: it gathers tests that were run many times, whatever their T/C, doses with no T/C, and many T/C values between a quarter and a half above the control. Further doses and runs are listed elsewhere. T/C gives the treated animals as a percentage of the vehicle group. Some entries give survivors of the animals treated and no T/C: the source holds a T/C of zero for them, seemingly a mark for toxic or unscored doses. Some survivor counts are full or nearly so, which does not show that the dose was tolerated: the source hardly ever lists a survival T/C far under the control, and the zero likely stands for such cases as well. Counts of survivors are from the toxicity check (mostly the fifth day) where no day follows; animals may have died later. Schedules are NCI's codes, taken here to give the interval after Q, in days (D) or hours (H), and the number of doses after X. Some doses were run more than once; their values stand side by side, smallest first. Some schedule codes hold Z or #, which are not explained here. Where survival is the endpoint, this PubChem deposit counts one and a half times the control or more as active, and values a quarter to a half above the control carry no call in these data; other NCI protocols may use other cut-offs.

Tested on: L1210 leukemia ip in BDF1 mice, survival T/C
Assay: NCI In Vivo Anticancer Drug Screen. Data for tumor model L1210 Leukemia (intraperitoneal) in B6D2F1 (BDF1) mice
Conditions: T/C endpoint: mean survival time, higher T/C = longer survival
[1] = dose: 100.0 mg/kg/injection, schedule: Q04DX003 (ip), vehicle: saline
[2] = dose: 200.0 mg/kg/injection, schedule: Q04DX003 (ip), vehicle: saline
[3] = dose: 400.0 mg/kg/injection, schedule: Q04DX003 (ip), vehicle: saline
[4] = dose: 400.0 mg/kg/injection, schedule: Q04DX002 (ip), vehicle: Klucel (hydroxypropylcellulose) (HPC)
[5] = dose: 400.0 mg/kg/injection, schedule: Q01DX009 (ip), vehicle: Klucel (hydroxypropylcellulose) (HPC)
[6] = dose: 300.0 mg/kg/injection, schedule: Q01DX001 (ip), vehicle: saline
[7] = dose: 400.0 mg/kg/injection, schedule: Q01DX001 (ip), vehicle: saline
[8] = dose: 100.0 mg/kg/injection, schedule: Q01DX009 (ip), vehicle: other
[9] = dose: 200.0 mg/kg/injection, schedule: Q01DX009 (ip), vehicle: other
[10] = dose: 400.0 mg/kg/injection, schedule: Q01DX009 (ip), vehicle: other

C1CCN2CC3CC(CN4CCCCC34)C2C1 (stereo not drawn)
survivor count (dose: 80.0 mg/kg/injection, schedule: Q04DX003 (ip), vehicle: saline): 0 of 6 | survivor count [1]: 0 of 6 | survivor count [2]: 0 of 6 | survivor count [3]: 0 of 6

CNC(=S)N/N=C/C(C)=N/NC(=S)NC
survivor count (dose: 1.0 micrograms/kg/injection, schedule: Q01DX009 (ip), vehicle: carboxymethylcellulose (CMC)): 0 of 6 | survivor count (dose: 5.0 micrograms/kg/injection, schedule: Q01DX009 (ip), vehicle: carboxymethylcellulose (CMC)): 0 of 6 | survivor count (dose: 10.0 micrograms/kg/injection, schedule: Q01DX009 (ip), vehicle: carboxymethylcellulose (CMC)): 0 of 6 | survivor count (dose: 50.0 micrograms/kg/injection, schedule: Q01DX009 (ip), vehicle: carboxymethylcellulose (CMC)): 0 of 6

CN1C2CCC1CC(OC(=O)C(CO)c1ccccc1)C2 (stereo not drawn)
survivor count (dose: 250.0 mg/kg/injection, schedule: Q01DX Z (ip), vehicle: saline): 2 of 6

CC/C(C)=N\NC(N)=S
survivor count (dose: 25.0 mg/kg/injection, schedule: Q01DX009 (ip), vehicle: Klucel (hydroxypropylcellulose) (HPC)): 5 of 6 | survivor count (dose: 50.0 mg/kg/injection, schedule: Q04DX002 (ip), vehicle: Klucel (hydroxypropylcellulose) (HPC)): 0 of 3 | survivor count (dose: 100.0 mg/kg/injection, schedule: Q04DX002 (ip), vehicle: Klucel (hydroxypropylcellulose) (HPC)): 0 of 3 | survivor count (dose: 200.0 mg/kg/injection, schedule: Q04DX002 (ip), vehicle: Klucel (hydroxypropylcellulose) (HPC)): 0 of 3 | survivor count [4]: 0 of 3

CCOC(=O)/C=C/C(=O)O.[Cu+2]
survivor count (dose: 1.56 mg/kg/injection, schedule: Q04DX003 (ip), vehicle: saline): 3 of 3 | survivor count (dose: 12.5 mg/kg/injection, schedule: Q04DX003 (ip), vehicle: saline): 3 of 3 | survivor count (dose: 25.0 mg/kg/injection, schedule: Q04DX003 (ip), vehicle: saline): 1 of 3 | survivor count [1]: 0 of 4 | survivor count [2]: 0 of 4 | survivor count [3]: 0 of 4

O=C(Nc1cc(C(F)(F)F)ccc1Cl)N(Cc1ccccc1)c1ccccc1
T/C [4]: 129 % of control

C(=NC(c1ccccc1)(c1ccccc1)c1ccccc1)=NC(c1ccccc1)(c1ccccc1)c1ccccc1
survivor count (dose: 100.0 mg/kg/injection, schedule: Q01DX009 (ip), vehicle: gum acacia): 5 of 5 and 6 of 6

CC(C)(C)OC(=O)NNC(=O)c1ccc([N+](=O)[O-])cc1
survivor count (dose: 120.0 mg/kg/injection, schedule: Q01DX009 (ip), vehicle: Klucel (hydroxypropylcellulose) (HPC)): 6 of 6 | survivor count (dose: 180.0 mg/kg/injection, schedule: Q01DX009 (ip), vehicle: Klucel (hydroxypropylcellulose) (HPC)): 6 of 6 | survivor count (dose: 400.0 mg/kg/injection, schedule: Q01DX001 (ip), vehicle: other): 3 of 6

O=S(=O)(O)c1ccccc1O
survivor count (dose: 100.0 mg/kg/injection, schedule: Q01DX009 (ip), vehicle: saline): 2 of 6

COc1ccc(C(=O)c2no[n+]([O-])c2C(=O)c2ccc(OC)cc2)cc1
survivor count (dose: 400.0 mg/kg/injection, schedule: Q04DX003 (ip), vehicle: saline with Tween-80): 6 of 6

CC(=O)Nc1ccc(OC(=O)Nc2cc(C(F)(F)F)ccc2Cl)cc1
survivor count [5]: 5 of 6

BrCC1(c2ccccc2)OCCO1
survivor count [5]: 0 of 6

CC(=O)NC1=C(Oc2ccc(C)cc2)C(=O)c2ccccc2C1=O
survivor count [6]: 0 of 6

COS(=O)(=O)CCC[n+]1ccccc1
survivor count [7]: 0 of 4

COc1cc2ccncc2cc1OCc1ccccc1
survivor count (dose: 200.0 mg/kg/injection, schedule: Q01DX009 (ip), vehicle: saline): 0 of 6 | survivor count (dose: 400.0 mg/kg/injection, schedule: Q01DX009 (ip), vehicle: saline): 0 of 6

O=C1Cc2ccccc2CNN1
survivor count (dose: 200.0 mg/kg/injection, schedule: Q01DX001 (ip), vehicle: other): 6 of 6

O=C(O)/C=C\C(Cl)(Cl)Cl
survivor count (dose: 400.0 mg/kg/injection, schedule: Q04DX002 (ip), vehicle: saline with Tween-80): 1 of 3

CCOC(=O)c1ccc(NC(=S)NC(=O)c2cccc3ccccc23)cc1
T/C [8]: 90, 93, 95 % of control | survivor count [8]: 3 of 3 | T/C [9]: 86 % of control | survivor count [9]: 3 of 3 and 6 of 6 | T/C [10]: 91, 93, 95 % of control | survivor count [10]: 6 of 6

CC(C)C(C=NCC(CCN(C)C)(c1ccc2ccccc2c1)C(C)C)(CCN(C)C)c1ccc2ccccc2c1 (stereo not drawn)
survivor count (dose: 50.0 mg/kg/injection, schedule: Q04DX002 (ip), vehicle: saline + alcohol): 0 of 3 | survivor count (dose: 100.0 mg/kg/injection, schedule: Q04DX002 (ip), vehicle: saline + alcohol): 0 of 3 | survivor count (dose: 200.0 mg/kg/injection, schedule: Q04DX002 (ip), vehicle: saline + alcohol): 0 of 3 | survivor count (dose: 400.0 mg/kg/injection, schedule: Q04DX002 (ip), vehicle: saline + alcohol): 0 of 3

NC1c2ccccc2CC1C(=O)O (stereo not drawn)
survivor count [7]: 1 of 3

CCCCCC[n+]1ccc(C#N)cc1
survivor count (dose: 150.0 mg/kg/injection, schedule: Q01DX001 (ip), vehicle: saline): 0 of 6 | survivor count [6]: 0 of 6
